The source of these data is article PMC4320596, “Cytotoxicity effect of degraded and undegraded kappa and iota carrageenan in human intestine and liver cell lines” (BMC Complementary and Alternative Medicine, 2014).

The structures appear in SMILES notation. Converted amounts (≈) assume the structure as drawn. Like-named read-outs stand apart in the source and are kept apart here.

Holding throughout (type): cell-based
One experiment concerns FHs 74 Int cells. The experiment in a line: MTT cytotoxicity assay, FHs 74 Int. Conditions: Homo sapiens, FHs74Int, carrageenans in degraded form, / = no IC50 found. A general note: Tetrazolium assays rely on reduction of a dye to a coloured formazan, in cell work by metabolically active cells.
Another experiment deals with Fa2N-4 cells. In words: MTT cytotoxicity assay, Fa2N-4. Conditions: Homo sapiens, carrageenans in degraded form.
The subject of the next experiment is HepG2 cells. The experiment in a line: MTT cytotoxicity assay, HepG2. Conditions: Homo sapiens, carrageenans in degraded form, / = no IC50 found.

For `CC/C(=C(\c1ccccc1)c1ccc(OCCN(C)C)cc1)c1ccccc1` [TAM, Tamoxifen], the IC50 in the experiment on FHs 74 Int cells (24 h, read-out: Inhibition concentrations causing 50% cell death (IC50), 24 h, FHS 74 Int) is 8.4 µg/mL (≈ 22.6 µM); in the experiment with FHs 74 Int cells (48 h, read-out: Inhibition concentrations causing 50% cell death (IC50), 48 h, FHS 74 Int) it was 7.2 µg/mL (≈ 19.4 µM); in the experiment with FHs 74 Int cells (72 h, read-out: Inhibition concentrations causing 50% cell death (IC50), 72 h, FHS 74 Int), 6.8 µg/mL (≈ 18.3 µM); with Fa2N-4 cells (Fa2N-4, 24 h, 24 h, read-out: Inhibition concentrations causing 50% cell death (IC50), 24 h, fa2N4) it was 2.2 µg/mL (≈ 5.92 µM); in the experiment on Fa2N-4 cells (Fa2N-4, 48 h, 48 h, read-out: Inhibition concentrations causing 50% cell death (IC50), 48 h, fa2N4), 0.8 µg/mL (≈ 2.15 µM); with Fa2N-4 cells (Fa2N-4, 72 h, 72 h, read-out: Inhibition concentrations causing 50% cell death (IC50), 72 h, fa2N4), 1.2 µg/mL (≈ 3.23 µM). The IC50 was determined as 9 µg/mL (≈ 24.2 µM) in the experiment with HepG2 cells (24 h, read-out: Inhibition concentrations causing 50% cell death (IC50), 24 h, HepG2) and 6 µg/mL (≈ 16.1 µM) in the experiment on HepG2 cells (72 h, read-out: Inhibition concentrations causing 50% cell death (IC50), 72 h, HepG2).
